In PMC13289029:

Molecular target: DacA-luciN (Streptococcus mutans UA159)
Assay: split reporter; split Renilla luciferase complementation in living S. mutans, mid-log culture in THB, coelenterazine-h, luminescence normalized to OD600; compared with DacA-luciN + luciC negative control

Binder	binding
723-luciC (protein, UniProt Q8DV01 1-893) MFKKQKRDSFYVQDEKTVLSGLESSKKGLTSTQAKQRLADYGYNELEEDEKRTILAKFIDQFKDLMIIILLVAAALSVITEGMGGLTDAIIILVVVVLNAAFGVYQEGQAEAAIEALKSMSSPHARVRRDGHVTEIDSKELVPGDVVLLEAGDVVPADMRLLEAASLKIEEAALTGESVPVEKSVTVAIASDAGIGDRLNMAYQNSNVTYGRGMGVVTNTGMYTEVGHIAGMLANADETDTPLKQSLDNLSKVLTYVIIIIAIITCLVGIFVRHEEPLEGLMVAVALAVAAIPEGLPAIVTVVLSLGTKTLAKRQSIVRKLPAVETLGSTEIIASDKTGTLTMNQMTVEKVYYNGRLVDANDDIDVNNMALRVMNFANDSKVDANGKLIGDPTETALVQYGFDHNFDIREVLKAELRVAELPFDSDRKLMSTIHKLDGEKYLIAVKGAPDQLLKRITQIEIDGSIRPITEDDKKAILDMNKSLAKQALRVLMIAYKYESEIPKLETAVVENDLIFAGLVGMIDPERPEAAEAVHVAKEAGIRPIMITGDHQDTAEAIAKRLGIIDDDGIDHVFTGAELNELSDEEFQKVFKQYSVYARVSPEHKVRIVKAWQNDGKIVAMTGDGVNDAPSLKTADIGIGMGITGTEVSKGASDMVLADDNFATIIVAVEEGRKVFSNIQKSIQYLLSANMAEVFTIFFATLFGWDVLQPVHLLWINLVTDTLPAIALGVEPAEPGVMTHKPRGRKSSFFSGGVMGAIIYQGILQTLLVLGVYGWAVFFPEHATRTEIHADALTMAFATLGLIQLVHAYNVKSVYQSIFKVGFFKNKTFNWALPTALIIMLATIVIPGFNRFFHVSHLSVTQWCVVVGGSLAMFVIVEIVKAIQRVLGQDQKAI	binds
GapC-luciC (protein, UniProt Q8DVV3 1-337) MVVKVGINGFGRIGRLAFRRIQNVEGVEVTRINDLTDPNMLAHLLKYDSTQGRFDGNVEVKEGGFEVNGKFVKVSAERDPEQIDWAADGVEIVLEATGFFASKAAAEKHLHANGGAKKVVITAPGGNDIKTIVFNTNHDVLDGTETVISGASCTTNCLAPMAKALHDNFSIKEGLMTTIHAYTGDQMVLDGPHRKGDLRRARAAAANIVPNSTGAAKAIGLVIPELNGKLDGAAQRVPVPTGSVTELVAVLDKKVTVDEVNAAMKAAANESYGYTEDPIVSSDIVGMSFGSLFDATQTKVLDVDGKQLVKVVSWYDNEMSYTSQLVRTLEYFAKIAK	binds

Results are given in words; binding and its absence hold for the method and conditions named. Binding seen in cells or lysates may run through a third protein. A result given as binding can be weak or reduced; the word gives no strength. Tags and fused reporters may be left off the sequences shown.
